Laboratory results published in EP4417623A1 (Fundació Institut de Recerca Contra la Leucèmia Josep …, dated 2024).
Results are given in words; binding and its absence hold for the method and conditions named. Some results given as binding are weak or reduced against the parent protein; the word gives no strength.

Experiments:
[1] = target: T1, human CCR9 (C-C chemokine receptor type 9) (human) (UniProt P51686); assay: flow cytometry on WT and CCR9 KO MOLT4 cells
T1 sequence (looked up): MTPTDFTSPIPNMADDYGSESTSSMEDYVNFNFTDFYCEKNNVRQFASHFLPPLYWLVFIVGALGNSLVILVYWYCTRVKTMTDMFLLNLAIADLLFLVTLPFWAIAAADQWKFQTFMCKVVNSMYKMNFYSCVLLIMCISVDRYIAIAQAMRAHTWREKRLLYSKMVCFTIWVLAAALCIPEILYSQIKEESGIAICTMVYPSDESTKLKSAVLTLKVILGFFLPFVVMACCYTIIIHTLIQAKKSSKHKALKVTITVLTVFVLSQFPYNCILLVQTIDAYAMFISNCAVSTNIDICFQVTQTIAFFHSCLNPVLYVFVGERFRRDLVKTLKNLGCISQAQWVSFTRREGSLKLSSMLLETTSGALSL

[2] = target: T1, human CCR9 (C-C chemokine receptor type 9) (human); assay: flow cytometry of hybridoma supernatant on CCR9+ MOLT-4 and CCR9 KO MOLT-4 cells

binding [1]: binds | binding [2]: binds
B1: anti-CCR9 antibody clone 115 (antibody, V domains shown)
VH: QVQLKQSGPELVKPGTSVRVSCTASGYSFTDYIIYWVKQSHGRSLEWIGYIDPNNYNTRYSQKFKGKATLTVDKSSTSAFMHLNSLTSDDSAVYYCARDVYWGQGTTLTVSS
VL: DVVMTQTPLSLTVSLGDQASISCRSSQSLVHSNGKTYLQWYLQKPGQSPKLLIYKVSNRFSGVPDRFSGSGSGTDFTLKISRVEAEDLGVYFCAQSTHVWTFGGGTKLEIKR
notes: Murine monoclonal antibody, isotype IgG1; It was tested as hybridoma supernatant in the FACS screening and as Protein A/G purified antibody in the ELISA
